# In article doi:10.1101/2022.02.02.478874:
# Results are given in words; binding and its absence hold for the method and conditions named. Some results given as binding are weak or reduced against the parent protein; the word gives no strength.
# B1: ^mChSpindly^ΔRV (protein, UniProt Q96EA4 1-605)
# chain: MEADIITNLRCRLKEAEEERLKAAQYGLQLVESQNELQNQLDKCRNEMMTMTESYEQEKYTLQREVELKSRMLESLSCECEAIKQQQKMHLEKLEEQLSRSHGQEVNELKTKIEKLKVELDEARLSEKQLKHQVDHQKELLSCKSEELRVMSEQESMSSEMLALQIELTEMESMKTTLKEEVNELQYRQEQLELLITNLMRQVDRLKEEKEEREKEAVSYYNALEKARVANQDLQVQLDQALQQALDPNSKGNSLFAEVEDRRAAMERQLISMKVKYQSLKKQNVFNREQMQRMKLQIATLLQMKGSQTEFEQQERLLAMLEQKNGEIKHLLGEIRNLEKFKNLYDSMESKPSVDSGTLEDNTYYTDLLQMKLDNLNKEIESTKGELSIQRMKALFESQRALDIERKLFANERCLQLSESENMKLRAKLDELKLKYEPEETVEVPVLKKRREVLPVDITTAKDACVNNSALGGEVYRLPPQKEETQSCPNSLEDNNLQLEKSVSIYTPVVSLSPHKNLPVDMQLKKEKKCVKLIGVPADAEALSERSGNTPNSPRLAAESKLQTEVKEGKETSSKLEKETCKKLHPILYVSSKSTPETQCPQQ
# B2: Spindly^156-275 (domain or fragment, UniProt Q96EA4 156-275)
# chain: QESMSSEMLALQIELTEMESMKTTLKEEVNELQYRQEQLELLITNLMRQVDRLKEEKEEREKEAVSYYNALEKARVANQDLQVQLDQALQQALDPNSKGNSLFAEVEDRRAAMERQLISM
# B3: ^mChSpindly^Δ26-32 (protein, UniProt Q96EA4)
# chain: MEADIITNLRCRLKEAEEERLKAAQSQNELQNQLDKCRNEMMTMTESYEQEKYTLQREVELKSRMLESLSCECEAIKQQQKMHLEKLEEQLSRSHGQEVNELKTKIEKLKVELDEARLSEKQLKHQVDHQKELLSCKSEELRVMSERVQESMSSEMLALQIELTEMESMKTTLKEEVNELQYRQEQLELLITNLMRQVDRLKEEKEEREKEAVSYYNALEKARVANQDLQVQLDQALQQALDPNSKGNSLFAEVEDRRAAMERQLISMKVKYQSLKKQNVFNREQMQRMKLQIATLLQMKGSQTEFEQQERLLAMLEQKNGEIKHLLGEIRNLEKFKNLYDSMESKPSVDSGTLEDNTYYTDLLQMKLDNLNKEIESTKGELSIQRMKALFESQRALDIERKLFANERCLQLSESENMKLRAKLDELKLKYEPEETVEVPVLKKRREVLPVDITTAKDACVNNSALGGEVYRLPPQKEETQSCPNSLEDNNLQLEKSVSIYTPVVSLSPHKNLPVDMQLKKEKKCVKLIGVPADAEALSERSGNTPNSPRLAAESKLQTEVKEGKETSSKLEKETCKKLHPILYVSSKSTPETQCPQQ
# B4: ^mChSpindly^Δ276-306 (protein, UniProt Q96EA4)
# chain: MEADIITNLRCRLKEAEEERLKAAQYGLQLVESQNELQNQLDKCRNEMMTMTESYEQEKYTLQREVELKSRMLESLSCECEAIKQQQKMHLEKLEEQLSRSHGQEVNELKTKIEKLKVELDEARLSEKQLKHQVDHQKELLSCKSEELRVMSERVQESMSSEMLALQIELTEMESMKTTLKEEVNELQYRQEQLELLITNLMRQVDRLKEEKEEREKEAVSYYNALEKARVANQDLQVQLDQALQQALDPNSKGNSLFAEVEDRRAAMERQLISMKGSQTEFEQQERLLAMLEQKNGEIKHLLGEIRNLEKFKNLYDSMESKPSVDSGTLEDNTYYTDLLQMKLDNLNKEIESTKGELSIQRMKALFESQRALDIERKLFANERCLQLSESENMKLRAKLDELKLKYEPEETVEVPVLKKRREVLPVDITTAKDACVNNSALGGEVYRLPPQKEETQSCPNSLEDNNLQLEKSVSIYTPVVSLSPHKNLPVDMQLKKEKKCVKLIGVPADAEALSERSGNTPNSPRLAAESKLQTEVKEGKETSSKLEKETCKKLHPILYVSSKSTPETQCPQQ
# B5: Spindly^1-275 (domain or fragment, UniProt Q96EA4 1-275)
# chain: MEADIITNLRCRLKEAEEERLKAAQYGLQLVESQNELQNQLDKCRNEMMTMTESYEQEKYTLQREVELKSRMLESLSCECEAIKQQQKMHLEKLEEQLSRSHGQEVNELKTKIEKLKVELDEARLSEKQLKHQVDHQKELLSCKSEELRVMSERVQESMSSEMLALQIELTEMESMKTTLKEEVNELQYRQEQLELLITNLMRQVDRLKEEKEEREKEAVSYYNALEKARVANQDLQVQLDQALQQALDPNSKGNSLFAEVEDRRAAMERQLISM
# B6: ^mChSpindly^33-605 (domain or fragment, UniProt Q96EA4 33-605)
# chain: SQNELQNQLDKCRNEMMTMTESYEQEKYTLQREVELKSRMLESLSCECEAIKQQQKMHLEKLEEQLSRSHGQEVNELKTKIEKLKVELDEARLSEKQLKHQVDHQKELLSCKSEELRVMSERVQESMSSEMLALQIELTEMESMKTTLKEEVNELQYRQEQLELLITNLMRQVDRLKEEKEEREKEAVSYYNALEKARVANQDLQVQLDQALQQALDPNSKGNSLFAEVEDRRAAMERQLISMKVKYQSLKKQNVFNREQMQRMKLQIATLLQMKGSQTEFEQQERLLAMLEQKNGEIKHLLGEIRNLEKFKNLYDSMESKPSVDSGTLEDNTYYTDLLQMKLDNLNKEIESTKGELSIQRMKALFESQRALDIERKLFANERCLQLSESENMKLRAKLDELKLKYEPEETVEVPVLKKRREVLPVDITTAKDACVNNSALGGEVYRLPPQKEETQSCPNSLEDNNLQLEKSVSIYTPVVSLSPHKNLPVDMQLKKEKKCVKLIGVPADAEALSERSGNTPNSPRLAAESKLQTEVKEGKETSSKLEKETCKKLHPILYVSSKSTPETQCPQQ
# B7: ^mChSpindly^CC2* (R295E-K297E) (protein, UniProt Q96EA4 1-605)
# chain: MEADIITNLRCRLKEAEEERLKAAQYGLQLVESQNELQNQLDKCRNEMMTMTESYEQEKYTLQREVELKSRMLESLSCECEAIKQQQKMHLEKLEEQLSRSHGQEVNELKTKIEKLKVELDEARLSEKQLKHQVDHQKELLSCKSEELRVMSERVQESMSSEMLALQIELTEMESMKTTLKEEVNELQYRQEQLELLITNLMRQVDRLKEEKEEREKEAVSYYNALEKARVANQDLQVQLDQALQQALDPNSKGNSLFAEVEDRRAAMERQLISMKVKYQSLKKQNVFNREQMQEMELQIATLLQMKGSQTEFEQQERLLAMLEQKNGEIKHLLGEIRNLEKFKNLYDSMESKPSVDSGTLEDNTYYTDLLQMKLDNLNKEIESTKGELSIQRMKALFESQRALDIERKLFANERCLQLSESENMKLRAKLDELKLKYEPEETVEVPVLKKRREVLPVDITTAKDACVNNSALGGEVYRLPPQKEETQSCPNSLEDNNLQLEKSVSIYTPVVSLSPHKNLPVDMQLKKEKKCVKLIGVPADAEALSERSGNTPNSPRLAAESKLQTEVKEGKETSSKLEKETCKKLHPILYVSSKSTPETQCPQQ
# B8: ^mChSpindly^76-605 (domain or fragment, UniProt Q96EA4 76-605)
# chain: LSCECEAIKQQQKMHLEKLEEQLSRSHGQEVNELKTKIEKLKVELDEARLSEKQLKHQVDHQKELLSCKSEELRVMSERVQESMSSEMLALQIELTEMESMKTTLKEEVNELQYRQEQLELLITNLMRQVDRLKEEKEEREKEAVSYYNALEKARVANQDLQVQLDQALQQALDPNSKGNSLFAEVEDRRAAMERQLISMKVKYQSLKKQNVFNREQMQRMKLQIATLLQMKGSQTEFEQQERLLAMLEQKNGEIKHLLGEIRNLEKFKNLYDSMESKPSVDSGTLEDNTYYTDLLQMKLDNLNKEIESTKGELSIQRMKALFESQRALDIERKLFANERCLQLSESENMKLRAKLDELKLKYEPEETVEVPVLKKRREVLPVDITTAKDACVNNSALGGEVYRLPPQKEETQSCPNSLEDNNLQLEKSVSIYTPVVSLSPHKNLPVDMQLKKEKKCVKLIGVPADAEALSERSGNTPNSPRLAAESKLQTEVKEGKETSSKLEKETCKKLHPILYVSSKSTPETQCPQQ
# Biological target: Dynactin pointed end (PE) complex (p25, p27, p62, Arp11) (UniProt Q9BTE1)
# Experiment: SEC
row,binding,Binder
1,binds,B1
2,binds,B2
3,binds weakly,B3
4,binds,B4
5,binds,B5
6,binds,B6
7,binds,B7
8,binds,B8
